These results are taken from paper PMC5996148.

Protein sequences, listed by entry. Tags and fused reporters are not part of them. Lines headed by an entry give the natural chain unless they say otherwise; changes in a name come on top.
UniProt P57060: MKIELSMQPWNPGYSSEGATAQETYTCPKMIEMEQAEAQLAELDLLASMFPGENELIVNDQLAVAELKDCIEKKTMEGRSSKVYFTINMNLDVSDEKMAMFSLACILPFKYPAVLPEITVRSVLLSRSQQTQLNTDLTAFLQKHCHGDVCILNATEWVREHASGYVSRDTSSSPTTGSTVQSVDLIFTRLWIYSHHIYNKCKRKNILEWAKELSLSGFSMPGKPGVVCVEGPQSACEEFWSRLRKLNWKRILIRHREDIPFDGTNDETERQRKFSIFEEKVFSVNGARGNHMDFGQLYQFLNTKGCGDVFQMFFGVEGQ

The other results are listed elsewhere or left out. For some assays here: The source does not settle which construct or isoform was used.

Assay in all cases: protein microarray (ProtoArray v5.0), streptavidin-Alexa Fluor 647
Settings in all cases: 3'-biotin; 20 mM Tris (pH 7.5), 5 mM MgCl2, 100 mM KCl, 0.1% Tween-20, A/T-rich and random oligonucleotide blockers; temperature not stated; high values mean tight binding

One assay concerns the target RWDD2B (UniProt P57060).
Assay [1] deals with Rab9 effector protein with Kelch motifs (human).
Assay [2] deals with Rap1 GTPase-GDP dissociation stimulator 1 (human).
The test system of assay [3] is Ras-related protein Rab-39B (human).
The test system of assay [4] is Ras-related protein Rab-3D (human).
For assay [5], the system named is Ras-related protein Rab-9B (human).
The test system of assay [6] is Receptor expression-enhancing protein 1 (human).
Assay [7] concerns Receptor expression-enhancing protein 5 (human).
Assay [8] has as its system Regenerating islet-derived protein 3 gamma (human).
Assay [9] relates to Regulator of G-protein signaling 3 (human).
The subject of assay [10] is Retinoid-binding protein 7 (human).
In assay [11] the test system is Retinol-binding protein 1 (human).
For assay [12], the system named is Ropporin-1-like protein (human).
The test system of another assay is Ropporin-1B (human).
The subject of another assay is S100A14 (human).
Another assay has as its system S100A8 (human).
In a further assay the test system is SAA1 (human).
For a further assay, the system named is SAA4 (human).
A further assay has as its system SAE1 (human).
In another assay the test system is SAMD4A (human).

With “GGGGACAGGGGTATGGGGAGGGG [G4-3 biotinylated (CtG)]”, the binding signal with RWDD2B was 4.83 z-score; in [1], -0.327 z-score; in assay [2] it was -0.343 z-score; in assay [3], -0.341 z-score; in [4], -0.331 z-score; in assay [5] it was -0.34 z-score. Also, the binding signal in assay [6] was -0.317 z-score; in [7], -0.339 z-score; in assay [8], -0.333 z-score; in assay [9] it was 5.25 z-score; in assay [10] it was -0.331 z-score; in assay [11] it was -0.313 z-score. In addition, the binding signal in assay [12] is -0.332 z-score; in the assay on Ropporin-1B (human), -0.344 z-score; in the assay on S100A14 (human) it was -0.344 z-score; in the assay on S100A8 (human) it was -0.341 z-score; in the assay with SAA1 (human) it was -0.323 z-score; with SAA4 (human), -0.316 z-score. In addition, the binding signal with SAE1 (human) was -0.34 z-score; with SAMD4A (human) it was -0.333 z-score.
